In patent publication US20240207141A1, “PEPTIDE HAVING REPARATIVE DENTIN-REGENERATING ACTIVITY AND USE THEREOF” (SEOUL NATIONAL UNIVERSITY R&DB FOUNDATION, priority 2022, published 2024):
“Also recorded” adds a separate entry of the source. At least one peptide structure holds a part that was inferred or is arguable (an end, a ring closure or a residue). No end group written: not given here.

Legend:
[1] = system: rat pulp exposure model; assay: Rat tooth pulp exposure model, immunohistochemical staining with anti-DSP antibody; type: in vivo; conditions: 2 weeks after pulp exposure surgery
[2] = system: human dental pulp cells (hDPCs); assay: Scratch wound migration assay; type: cell-based; conditions: vitronectin 1.25 μg/ml, VnP-16 50 μg/ml; 0, 24 and 48 hours
Protocol: In order to evaluate the migration ability and wound healing ability of hDPCs, the scratch assay was used. The hDPCs were plated in a 24-well plate and incubated in complete medium until 80% confluence. Then, the cells were passaged in serum-free medium for 24 hours, and then stimulated by scratching with a 200 μl pipette tip. After PBS washing to remove cell debris, the cultures were treated with vehicle (10% DMSO), vitronectin (1.25 μg/ml), SP (50 μg/ml), or VnP-16 (50 μg/ml). Pictures were taken using a microscope (Nikon, Tokyo, Japan) at 0, 24 and 48 hours after treatment. The data were analyzed using Image Pro Plus software (version 4.5; Media Cybernetics, MD, USA) to compare the percentage of scratch closure from 0 hour to 48 hours time point. The percentage of: scratch closure was calculated by the following equation: Scratch closure %=[A (0)−A(t)/A(0)]×100. Wherein the scratch area at time zero is “A (0)”; and the area after the incubation time (t) is “A(t)”. The scratch wound migration assay was performed in triplicate.

[3] = system: human dental pulp cells (hDPCs); assay: Alkaline phosphatase (ALP) staining after odontogenic induction; type: cell-based; conditions: 7 days after odontogenic induction
[4] = system: human dental pulp cells (hDPCs); assay: hDPCs cell spreading assay on coated plates; type: cell-based; conditions: immobilized on plates (vitronectin 0.26 μg/cm2, peptides 10.5 μg/cm2), 3 hours
Protocol: In addition, for the cell spreading assay, hDPCs (3×10^4 cells/250 μL) were incubated at 37° ° C. for 3 hours on each peptide-coated plate in the same manner as above. The attached cells were fixed with 10% formalin and stained with 0.5% crystal violet for 1 hour. Then, the plates were gently washed three times with PBS, and then the degree of cell spreading was assessed by measuring the surface area of the cells using Image Pro Plus software (version 4.5; Media Cybernetics, Silver Spring, MD, USA).

[5] = system: human dental pulp cells (hDPCs); assay: hDPCs cell attachment assay on coated plates; type: cell-based; conditions: immobilized on plates (vitronectin 0.26 μg/cm2, peptides 10.5 μg/cm2), 1 hour
Protocol: First, for the cell attachment assay, 48-well culture plates were coated with human plasma vitronectin (0.26 μg/cm2) at 4° C. for 24 hours. The SP and VnP-16 (10.5 μg/cm2) were also coated on the plates by drying at room temperature for 24 hours. […] The peptide-coated plates were blocked with 1% heat-inactivated bovine serum albumin (BSA) in phosphate-buffered saline (PBS) at 37° ° C. for 1 hour, and then washed with PBS. The hDPCs (5×10^4 cells/250 μL) were added to each plate and incubated at 37° ° C. for 1 hour, and then unattached cells were removed by rinsing the plates twice with PBS. The attached cells were fixed with 10% formalin for 15 minutes and stained with 0.5% crystal violet for 1 hour. The plates were then gently washed three times with double-distilled water. Afterwards, the contents of each well were solubilized in 2% sodium dodecyl sulfate for 5 minutes, and then absorbance at 570 nm was measured using a microplate reader.

[6] = system: human dental pulp cells (hDPCs); assay: Alizarin Red S (ARS) staining after odontogenic induction; type: cell-based; conditions: 21 days after odontogenic induction
[7] = system: rat pulp exposure model; assay: Rat tooth pulp exposure model, histologic analysis (H&E) of inflammatory response and hard tissue formation; type: in vivo
Protocol: Seven-week-old male Sprague-Dawley rats were purchased from the OrientBio after approval from the Institutional Animal Care and Use Committee of Seoul National University (No. SNU-180109-2) was obtained. […] Resin cement (Rely X U-200, 3M ESPE, MN, USA) was used as the final restoration in all experimental groups.
Specifically, the rats were anesthetized by the intraperitoneal injection of 31.25 mg/kg tiletamine/zolazepam and 8.75 mg/kg xylazine. After ascertaining the general anesthesia, the oral cavity was opened with a customized wire to expose the lower first molars. After cleaning and sanitizing with both 3% H2O2 and a 10% Betadine-soaked cotton, the center of the occlusal surface was carefully punctured using a #¼ round bur (0.5 mm in diameter) with a high-speed hand piece. MTA (ProRoot MTA, Dentsply Sirona, York, PA, USA) was mixed according to the manufacturer's instruction and the mixture was applied to the exposed pulp. […] The punctured sites were covered with resin cement after the application of MTA or the collagen sponge. In the Resin group, resin cement was directly applied to the punctured site. The sharp cusp tips of the upper molar and lower first molar were grinded using a football shaped diamond bur in order to prevent tooth fractures by mastication.
Rats were histologically analyzed 2 and 4 weeks after pulp exposure surgery. Whole mandibles were fixed f in 4% paraformaldehyde at 4° ° C. for 24 hours. For histological staining, the specimens were decalcified with 12% EDTA for 4 weeks and embedded in paraffin. […] Each sample was evaluated and scored for inflammatory response and hard tissue formation according to the criteria presented in [Table 2] below.

[8] = system: ALP, DMP-1 and DSPP genes in hDPCs; assay: qRT-PCR of odontogenic marker genes; type: cell-based, human; conditions: cells harvested on days 3, 7 and 14 after induction

RVYFFKGKQYWE-NH2 [VnP-16] was tested, and the DSP immunohistochemical staining [1] was “high intensity inside the mineralized tissue”, the “wound migration of hDPCs (scratch closure)” value [2] was “strongly promoted the wound migration” and the “ALP staining (odontogenic differentiation)” value [3] was “increased ALP staining and ARS staining at levels similar to those of vitronectin”. The “cell spreading of hDPCs” value [4] was “induced cell attachment and spreading at higher levels than the BSA control or SP control”, the “cell attachment of hDPCs” value [5] was “induced cell attachment and spreading at higher levels than the BSA control or SP control” and the “ARS staining (mineralization)” value [6] was “increased ALP staining and ARS staining at levels similar to those of vitronectin”. The “specimens with reparative dentin completely covering the pulp-exposed site” value ([7]; 2 weeks after pulp exposure surgery) was 1 out of 6, the “reparative dentin formation score” value ([7]; 4 weeks after pulp exposure surgery) was “moderate and heavy” and the “quality of the reparative dentin” value ([7]; 4 weeks after pulp exposure surgery, H&E) was “thicker and more homogeneously; also recorded: thicker and more homogeneous reparative dentin formation compared to that in the MTA and rhBMP-2 groups”. For the same substance, the “ALP mRNA expression (odontogenic marker)” value [8] was “upregulated”, the “DMP-1 mRNA expression (odontogenic marker)” value [8] was “upregulated” and the “DSPP mRNA expression (odontogenic marker)” value [8] was “upregulated”.
